Laboratory results from PubChem BioAssay AID1347076 (National Center for Advancing Translational Sciences (NCATS), 2019).
Hit rate of the full screen: of about 400,000 compounds, about 13,000 (3.2%) were called active. Inconclusive means that the source gave no clear call. Such entries were picked first, then a sample of the others. The call rests on the fitted dose curve; in most records, active means well fitted cell-killing curve with a large enough effect; inconclusive means small, poorly fitted or top-dose-only effect, or effect the other way; inactive means flat fitted curve, though single readings scatter. Where the call is inconclusive, the potency comes from a doubtful curve fit.

Assay: qHTS assay for MDR1-selective chemotherapeutics: Primary screen using the drug-selected MDR subline cells KB-V1; further: nearly all actives have a fitted effect of over 60% in size
Details: KB-V1 MDR cells viability, CellTiter-Glo, 72 h; activity change, negative = cytotoxicity: at 46.1 µM (top of the series)
Summary of the method: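 Cells of the MDR subline KB-V1 are plated, dosed with compound at multiple concentrations, and incubated 72 h at 37 degrees C; CellTiter-Glo is then added and luminescence read after 10 min.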
On the % scale 0 is the no-effect control and ±100 the full control effect; potency means the concentration at half of the fitted maximal effect.

Structure (SMILES)	Potency	activity change, negative = cytotoxicity
O=C(Cn1c(=O)sc2ccccc21)Nc1nc2c(s1)CCCC2	inconclusive: 25.9 µM [cytotoxic, single point]	
O=C1C=C(N2CCN(c3ccccn3)CC2)C(=O)c2c(O)ccc(O)c21	active: 14.6 µM	
Cc1cccc(NC(=S)N(C)Cc2cn(C)c3ccccc23)c1	inconclusive: 20.6 µM [cytotoxic, single point]	
COc1cc(N=Nc2ccc(Br)cc2)cc(C=O)c1O	active: 14.6 µM	
CCOc1ccc(-c2noc(-c3ccncc3)n2)cc1OCC		inactive: -13.2%
[O-][n+]1c2ccc3nonc3c2nn1-c1ccccc1Cl	inconclusive: 20.6 µM [cytotoxic, partial curve, poor fit]	
O=C1ON=C(c2ccccc2)/C1=C/c1cccnc1	inconclusive: 0.517 µM [cytotoxic, full curve, poor fit]	
CCCCCC1CC(=O)N(Cc2ccccc2)C(=O)N1 (stereo unspecified)		inactive: -0.509%
CC1(C(=O)NC23CC4CC(CC(C4)C2)C3)CC1(Cl)Cl (stereo unspecified)	inconclusive: 20.6 µM [cytotoxic, single point]	
Cc1ccc(NS(=O)(=O)c2cc3c(cc2N2CCC2)NC(=O)CC3)cc1C		inactive: -12.8%
COc1ncnc(OC)c1S(=O)(=O)Nc1ccc(C(F)(F)F)cc1		inactive: 17.9%
N#Cc1nc(-c2ccc(F)cc2)oc1NCCN1CCOCC1		inconclusive: 13%
CCn1c(NC(=O)Nc2cccc(C)c2C)cc2sccc21		inactive: 13.8%
O=c1n(CCCN2CCN(c3cccc(Cl)c3)CC2)nc2ccccn12	inconclusive: 11.6 µM [cytotoxic, partial curve, poor fit]	
COC(=O)C[C@H]1c2cc(C(F)(F)F)ccc2S(=O)(=O)N1C1CCCC1	inconclusive: 23.1 µM [cytotoxic, single point]	
CCN(CC)CCNC(=O)c1cn(C)c2ccc(S(=O)(=O)N(C)C3CCCCC3)cc2c1=O	inconclusive: 16.4 µM [rising, single point]	
O=C(CSc1ccc(Br)c2cccc(Cl)c12)Nc1ccc(S(=O)(=O)Nc2nccs2)cc1		inactive: -2.83%
O=C(NNC(=O)C12CC3CC(CC(C3)C1)C2)c1cnccn1	inconclusive: 29.1 µM [cytotoxic, single point]	
CC1CN(CCCOc2ccc([N+](=O)[O-])cc2)CC(C)O1 (stereo unspecified)	inconclusive: 9.2 µM [cytotoxic, partial curve]	
CC1(C)CC(=O)C2=C(C1)NC(SCC(=O)Nc1ccccc1)=C(C#N)C21CCCCC1	active: 20.6 µM	
NS(=O)(=O)c1ccc(CCNS(=O)(=O)Cc2ccc(Cl)cc2)cc1	inconclusive: 29.1 µM [rising, single point]	
CCOc1ccc(CN2CCN(S(=O)(=O)c3ccc(NC(C)=O)cc3)CC2)cc1	inconclusive: 14.6 µM [cytotoxic, partial curve]	
Cc1cc(-c2c(C(=O)N3CCOCC3)c(C)nn2-c2cccc(C(F)(F)F)c2)no1	inconclusive: 0.0073 µM [cytotoxic, full curve]	
COCCn1c(SCC(=O)Nc2ccccc2F)nc2c([nH]c3ccccc32)c1=O	inconclusive: 6.51 µM [cytotoxic, full curve]	

Structure (SMILES)	Potency	activity change, negative = cytotoxicity
CCC(=O)Nc1sc2c(c1C(=O)Nc1ccccc1C)CCC(C)C2 (stereo unspecified)		inactive: -29.2%
CCCOc1cccc(C(=O)NCCCNC(=O)c2ccccn2)c1	inconclusive: 11.6 µM [cytotoxic, partial curve, poor fit]	
C(=Nc1cnc2ccccc2c1)c1ccnc2ccccc12		inactive: 0%
c1ccc2c(COn3nnc4ccccc43)cccc2c1	inconclusive: 29.1 µM [cytotoxic, single point]	
COc1cc(OC)cc(C(=O)N[C@H](C(=O)NC2=NCCS2)C(C)C)c1	active: 11.6 µM	
CCCCCOC(=O)Cn1c(N2CCCCCC2)nc2c1c(=O)[nH]c(=O)n2C		inactive: -15.9%
Cc1nonc1CN(C)C(=O)c1cc(COc2ccc(F)cc2Cl)on1	inconclusive: 23.1 µM [cytotoxic, single point]	
NC(=S)NCc1cccnc1		inactive: 0%
O=c1c2ccccc2oc2cc(-c3ccc4[nH]ccc4c3)ccc12		inactive: -33%
CC1=NNC(=O)/C1=C\c1cn(-c2ccccc2)nc1-c1ccccc1	inconclusive: 23.1 µM [cytotoxic, single point]	
CCOC(=O)C1(C)CCN1C(=O)c1ccc(C(=O)OC)cc1 (stereo unspecified)	inconclusive: 16.4 µM [rising, single point]	
Cc1cc2c(cc1C)C(c1ccccc1F)CC(=O)N2 (stereo unspecified)	inconclusive: 20.6 µM [cytotoxic, single point]	
COc1cc(-c2cc(C(=O)Nc3cccc(C(C)=O)c3)c3ccccc3n2)cc(OC)c1OC	active: 20.6 µM	
O=C(c1ccc(Cn2c(=O)[nH]c3ccsc3c2=O)cc1)N1CCN(c2ccccc2)CC1	inconclusive: 23.1 µM [cytotoxic, single point]	
COc1cccc(NS(=O)(=O)Cc2ccccc2)c1	inconclusive: 29.1 µM [cytotoxic, single point]	
CC1CN(C(=O)COC(=O)[C@@H](NC(=O)c2ccccc2Cl)C(C)C)CC(C)O1 (stereo partly specified)	inconclusive: 29.1 µM [rising, partial curve, poor fit]	
O=C(N/N=C/c1cccnc1)c1cccc(F)c1	inconclusive: 8.2 µM [rising, partial curve]	
C[C@@H](C(=O)OCC(=O)c1ccc(F)c(F)c1)N1C(=O)C2CCCCC2C1=O (stereo partly specified)	inconclusive: 0.0291 µM [rising, full curve]	
CC(=O)c1ccc(N2CCN(C(=O)[C@H](C)NC(=O)c3ccccc3Cl)CC2)cc1	inconclusive: 13 µM [cytotoxic, partial curve]	
CCOc1ccccc1N(C(=O)c1ccccc1Cl)C1=NC(C)(C)CS1	inconclusive: 20.6 µM [cytotoxic, partial curve]	
O=[N+]([O-])c1cccc(/C=N/N2CCN(c3ccccn3)CC2)c1	inconclusive: 20.6 µM [cytotoxic, single point]	
COc1ccc2nc(NC(=O)c3ccc(S(=O)(=O)N4CCC(C)CC4)cc3)sc2c1		inactive: 24.7%
Cc1cccc(C)c1N1CCN(C(=O)Nc2ccc3c(c2)OCCO3)CC1	active: 4.61 µM	
COC(=O)c1ccc2c(=O)n(CC3CCCO3)c(SCC(=O)NCCc3ccc(S(N)(=O)=O)cc3)nc2c1 (stereo unspecified)	inconclusive: 23.1 µM [rising, single point]	

15 of the compounds above, with bars between the fields.
Structure (SMILES) | Potency | activity change, negative = cytotoxicity
COc1cc(N=Nc2ccc(Br)cc2)cc(C=O)c1O | active: 14.6 µM | 
CCOc1ccc(-c2noc(-c3ccncc3)n2)cc1OCC |  | inactive: -13.2%
[O-][n+]1c2ccc3nonc3c2nn1-c1ccccc1Cl | inconclusive: 20.6 µM [cytotoxic, partial curve, poor fit] | 
O=C1ON=C(c2ccccc2)/C1=C/c1cccnc1 | inconclusive: 0.517 µM [cytotoxic, full curve, poor fit] | 
CCCCCC1CC(=O)N(Cc2ccccc2)C(=O)N1 (stereo unspecified) |  | inactive: -0.509%
CC1(C(=O)NC23CC4CC(CC(C4)C2)C3)CC1(Cl)Cl (stereo unspecified) | inconclusive: 20.6 µM [cytotoxic, single point] | 
Cc1ccc(NS(=O)(=O)c2cc3c(cc2N2CCC2)NC(=O)CC3)cc1C |  | inactive: -12.8%
COc1ncnc(OC)c1S(=O)(=O)Nc1ccc(C(F)(F)F)cc1 |  | inactive: 17.9%
N#Cc1nc(-c2ccc(F)cc2)oc1NCCN1CCOCC1 |  | inconclusive: 13%
CCn1c(NC(=O)Nc2cccc(C)c2C)cc2sccc21 |  | inactive: 13.8%
O=c1n(CCCN2CCN(c3cccc(Cl)c3)CC2)nc2ccccn12 | inconclusive: 11.6 µM [cytotoxic, partial curve, poor fit] | 
COC(=O)C[C@H]1c2cc(C(F)(F)F)ccc2S(=O)(=O)N1C1CCCC1 | inconclusive: 23.1 µM [cytotoxic, single point] | 
CCN(CC)CCNC(=O)c1cn(C)c2ccc(S(=O)(=O)N(C)C3CCCCC3)cc2c1=O | inconclusive: 16.4 µM [rising, single point] | 
O=C(CSc1ccc(Br)c2cccc(Cl)c12)Nc1ccc(S(=O)(=O)Nc2nccs2)cc1 |  | inactive: -2.83%
O=C(NNC(=O)C12CC3CC(CC(C3)C1)C2)c1cnccn1 | inconclusive: 29.1 µM [cytotoxic, single point] | 

The listing continues:

Structure (SMILES)	Potency	activity change, negative = cytotoxicity
CC1CCCN(CCCOc2ccccc2-c2ccccc2)C1 (stereo unspecified)	inconclusive: 8.2 µM [cytotoxic, partial curve]	
CC(=C/c1ccccc1)/C=N/NC(=O)c1nnn(-c2nonc2N)c1CN1CCC(C)CC1	inconclusive: 4.11 µM [cytotoxic, partial curve]	
O=S(=O)(Cc1ccc(Cl)cc1)CC(O)COCc1ccccc1 (stereo unspecified)	inconclusive: 16.4 µM [cytotoxic, single point]	
Brc1cccc(-c2nnc3sc(CN4CCC5(CC4)OCCO5)cn23)c1	active: 20.6 µM	
CN(C)c1nc2ccc(OCCN3CCCCC3)cc2s1	inconclusive: 8.2 µM [cytotoxic, partial curve]	
CCOC(=O)c1c(N)n(-c2ccccc2CC)c2nc3ccccc3nc12	inconclusive: 9.2 µM [cytotoxic, partial curve, poor fit]	
Cc1cc(NS(=O)(=O)c2ccc3nc(-c4ccccc4)[nH]c3c2)ccc1Br		inactive: -25.2%
O=C(CCc1ccccc1)NCCCN1CCOCC1	inconclusive: 9.2 µM [rising, partial curve, poor fit]	
O=C(CN1C(=O)CSc2ccccc21)Nc1ccc2c(c1)OCCO2	inconclusive: 29.1 µM [cytotoxic, single point]	
C=C[C@H]1CN2CC[C@H]1C[C@H]2[C@H](O)c1ccnc2ccc(OC)cc12	inactive	
OC[C@@H]1CN(Cc2ccc(Cl)cc2)C[C@H](n2cnc3c(NCc4ccncc4)ncnc32)O1		inactive: 7.29%
Cc1ccc(N2CC(c3nnc(NC(=O)c4ccco4)s3)CC2=O)cc1Cl (stereo unspecified)	inconclusive: 16.4 µM [rising, partial curve]	
O=C(COC(=O)c1ccc(F)c(S(=O)(=O)N2CCOCC2)c1)NCc1ccc(Cl)cc1		inactive: -15.9%
O=C(NCC1CCCO1)c1ccc(CNS(=O)(=O)c2ccc(F)c(Cl)c2)cc1 (stereo unspecified)	inconclusive: 18.4 µM [cytotoxic, single point]	
CCCOc1ccccc1N/C(=N\S(=O)(=O)c1ccc(C)cc1)Nc1nc(C)cc(C)n1	inconclusive: 6.51 µM [cytotoxic, partial curve]	
COc1cccc(OC)c1C(=O)Nc1cc(C)on1		inconclusive: -45.9%
C=C(C)Cn1c2ccc(NC(=O)CCc3cccc(Cl)c3)cc2c(=O)n1C	inconclusive: 16.4 µM [cytotoxic, single point]	
Cc1cc(NC(=O)CCC(=O)N(c2ccc(C)c(F)c2)C(C(=O)NC2CCCC2)c2ccco2)no1 (stereo unspecified)	inconclusive: 8.2 µM [cytotoxic, partial curve]	
CC(C)CNC(=O)C1C(=O)Nc2ccccc2C(=O)N1C(C)(C)C (stereo unspecified)		inactive: -3.46%
Cc1ccc(N(C(=O)c2ccco2)C2C=CS(=O)(=O)C2)cc1 (stereo unspecified)	inconclusive: 2.31 µM [rising, partial curve, poor fit]	
Cc1cc(O)c2/c(=N\N)c(-c3csc(C)n3)coc2c1	inconclusive: 29.1 µM [rising, single point]	
O=C(CSc1ccccc1)N1CCc2ccccc21		inactive: 10.9%
COc1ccc(NC(=O)N2CCCC(CCC(=O)N(C)CCc3ccccn3)C2)cc1 (stereo unspecified)	inconclusive: 0.366 µM [rising, full curve, poor fit]	
